# Measurements taken from PubChem BioAssay AID540276 (National Center for Advancing Translational Sciences (NCATS), 2011).
# Values joined by “and” are separate entries in the source; they are usually repeats but may differ in a detail not shown here. Equal values may be shown once. The whole screen tested about 300,000 compounds, of which about 5,400 (1.8%) were called active. The inconclusive results got no clear call from the source; some entries with a clear call stand among them for comparison. The call rests on the fitted dose curve; tested in HEK293 cells. Potencies beside an inconclusive call are fits to weak or partial responses and may not hold up.
# Assay: qHTS for inhibitors of binding or entry into cells for Marburg Virus
# Settings: Marburg virus pseudotyped entry inhibition, cell reporter; activity change, negative = inhibition: at 37.8 µM (top of the series) unless noted
# On the % scale 0 is the no-effect control and ±100 the full control effect; potency means the concentration at half of the fitted maximal effect.
Structure (SMILES),Potency,"activity change, negative = inhibition"
CCN(c1ccccc1)S(=O)(=O)c1cc(C(=O)OCC(=O)c2c(N)n(C)c(=O)n(C)c2=O)ccc1C,"inconclusive: 0.447 µM [inhibitor, partial curve, poor fit]",
CCCC(=O)N1CC(=O)Nc2ccc(Br)cc2C1c1ccc(F)cc1 (configuration not stated),active: 11.2 µM,
C=CCNc1nc(NCCO)nc(N2CCCC2)n1,"inconclusive: 0.0517 µM [inhibitor, full curve, poor fit]",
COc1ccc(OC)c(CCNC(=O)Cn2cccc2C(=O)c2ccccc2C)c1,"inconclusive: 8.91 µM [inhibitor, partial curve, poor fit]",
CN(C)CCNC(=O)/C(=C/c1ccc(-c2ccc(Cl)cc2)o1)NC(=O)c1ccccc1,active: 11.6 µM,
Cc1ccc(NC(=O)CSc2nc3ccccc3c(=O)n2CCCC(=O)N2CCCC2)cc1,active: 8.2 µM,
COc1ccc(CC(=O)NCC2CCCN(Cc3cccc(SC)c3)C2)cc1 (configuration not stated),"inconclusive: 6.31 µM [inhibitor, partial curve, poor fit]",
Cc1ccsc1C(=O)Nc1ccc2c(c1)OCCO2,"inconclusive: 5.62 µM [inhibitor, partial curve, poor fit]",
COc1cccc(-c2nc(-c3ccc(Br)o3)no2)c1,"inconclusive: 35.5 µM [inhibitor, partial curve, poor fit]",
CS(=O)(=O)c1ccc2nc(NC(=O)CN3C(=O)C4CC=CCC4C3=O)sc2c1 (configuration not stated),"inconclusive: 10 µM [inhibitor, partial curve, poor fit]",
COC(=O)c1ccc(NC(=O)CSC2=NCCN2)cc1,"inconclusive: 12.6 µM [inhibitor, partial curve, poor fit]",
Cc1ccc(-n2[nH]c(=O)c3cccnc32)cc1,"inconclusive: 0.58 µM [inhibitor, single point]",
COc1ccccc1NC(=O)CCCC(=O)OC(C)C(=O)c1ccccc1 (configuration not stated),"inconclusive: 6.31 µM [inhibitor, single point]",
C/C(=N\NC(=S)NCc1ccccc1)c1ccc2ccccc2c1,"inconclusive: 25.9 µM [inhibitor, single point]",
O=C(/C=C/c1ccc([N+](=O)[O-])cc1)c1ccccc(=O)c1O,"inconclusive: 7.08 µM [inhibitor, full curve, poor fit]",
COc1ccc(-c2noc(CNC(=O)c3cc(OC)c(OC)c(OC)c3)n2)cc1,"inconclusive: 6.31 µM [inhibitor, single point]",
CCOC(=O)C1(Cc2ccccc2Cl)CCN(Cc2csc(C(C)=O)c2)CC1,"inconclusive: 12.6 µM [inhibitor, partial curve, poor fit]",
Cn1c(SCc2nc3ccccc3n2CCO)nc2ccccc21,,inactive: -19.6%
Cc1ccccc1NS(=O)(=O)c1cc(C(=O)N2CCCC2)ccc1Cl,,inactive: -7.99%
CC(=O)N1CCN(c2ccc(NC(=O)c3ccc4c(c3)OCCO4)cc2Cl)CC1,"inconclusive: 35.5 µM [inhibitor, single point]",
CCN1CCN(c2ccc(S(=O)(=O)N3CCCCC3)cc2NC(=O)COc2ccc(Cl)cc2)CC1,,inactive: -17.5%
Nc1c(N(CCC2=CCCCC2)C(=O)c2ccc([N+](=O)[O-])o2)c(=O)[nH]c(=O)n1Cc1ccccc1,,inactive: -8.17%
Cc1c(C(=O)OCC(=O)N(C)c2ccccc2)oc2ccccc12,,inactive: -9.34%

# Part of the list above in order of heavy-atom count, falling.
Structure (SMILES),Potency,"activity change, negative = inhibition"
Cc1ccc(NC(=O)CSc2nc3ccccc3c(=O)n2CCCC(=O)N2CCCC2)cc1,active: 8.2 µM,
COc1ccc(OC)c(CCNC(=O)Cn2cccc2C(=O)c2ccccc2C)c1,"inconclusive: 8.91 µM [inhibitor, partial curve, poor fit]",
CC(=O)N1CCN(c2ccc(NC(=O)c3ccc4c(c3)OCCO4)cc2Cl)CC1,"inconclusive: 35.5 µM [inhibitor, single point]",
Cn1c(SCc2nc3ccccc3n2CCO)nc2ccccc21,,inactive: -19.6%

# Later entries

Structure (SMILES),Potency,"activity change, negative = inhibition"
O=C(NC1CCCC1)c1ccc(CSCc2ccccc2F)o1,,inactive: 16.2%
CCOc1ccc(CC(=O)Nc2c(C(N)=O)oc3ccc(Br)cc23)cc1OCC,,inactive: -0.223%
CCOc1ccccc1NC(=O)CSc1c2c(nc3ccc(Cl)cc13)CCCC2,,inactive: -7.03% [at 46.1 µM]
CC(C)c1ccc(C(CC(=O)c2ccc(Cl)cc2)C(=O)O)cc1 (configuration not stated),"inconclusive: 3.66 µM [activator, single point]",
OC(COCc1ccc2c(c1)OCO2)CN1CCC(Cc2ccccc2)CC1 (configuration not stated),,inactive: -25.1%
COc1ccc(S(=O)(=O)N(CC(=O)NCCSc2ccc(C)cc2)c2ccc(C)cc2)cc1,"inconclusive: 6.31 µM [inhibitor, single point]",
COC(=O)c1cc(NC(=O)c2c(F)c(F)c(F)c(F)c2F)cc(C(=O)OC)c1,"inconclusive: 11.2 µM [inhibitor, partial curve, poor fit]",
CC(=O)Nc1ccc(OCC(O)Cn2nc(C)c(Br)c2C)cc1 (configuration not stated),,inactive: 0.398%
COc1ccc2c(c1)O[C@@H](c1cccc(C(F)(F)F)c1)[C@H](O)C2=O,"inactive and inconclusive: 3.35 µM [inhibitor, single point]",
O=C(CSc1nnc(-c2ccccn2)n1Cc1ccco1)c1ccc(-c2ccccc2)cc1,"inconclusive: 18.3 µM [inhibitor, single point]",
CCOc1ccccc1N1CC(C(=O)N(CC)CC(=O)Nc2ccc3c(c2)OCCO3)CC1=O (configuration not stated),"inconclusive: 8.91 µM [activator, partial curve, poor fit]",
CCc1ccccc1NC(=O)CN(C)S(=O)(=O)c1cccc2nsnc12,,inactive: 11.4% [at 46.1 µM]
O=C(N/N=C/c1ccc(F)cc1)c1cccc(NC(=O)c2ccccc2Cl)c1,"inconclusive: 25.1 µM [activator, single point]",
COc1cccc(C(=O)NNC(=O)CCc2ccccc2)c1,,inconclusive: 10.9% [activator] [at 46.1 µM]
CCc1oc(C(=O)OC)cc1CSC(=N)N,"inconclusive: 7.94 µM [inhibitor, partial curve]",
CCC1CCCCN1CCCNC(=O)Cn1c(=O)c2cccn2c2ccccc21 (configuration not stated),"inconclusive: 3.98 µM [inhibitor, single point]",
[O-][n+]1c2ccccc2[n+]([O-])c2cc(O)ccc21,"inconclusive: 0.112 µM [inhibitor, partial curve, poor fit]",
O=c1c2ccccc2nc2n1C1(CCCCC1)Cc1ccccc1-2,"inconclusive: 9.2 µM [inhibitor, partial curve, poor fit]",
CC(O)CNCCNCc1c(OCc2ccccc2)ccc2ccccc12 (configuration not stated),"inconclusive: 5.17 µM [inhibitor, full curve, poor fit]",
O=C(COc1ccccc1)Nc1cc(C(F)(F)F)ccc1N1CCCC1,"inconclusive: 14.1 µM [inhibitor, single point]",
CCCCN(CCCC)CC(O)COc1ccccc1Br (configuration not stated),"inconclusive: 23.1 µM [inhibitor, partial curve, poor fit]",
COc1ccc(CC(=O)NNc2ncnc3c2cnn3C)cc1OC,"inconclusive: 20 µM [activator, single point]",
O=C(CCc1ccccc1)c1ccc2c(c1)OCCCO2,,inactive: 21.6%

Structure (SMILES),Potency,"activity change, negative = inhibition"
COc1ccc(Cc2noc(CN3CCCN(C4Cc5ccccc5C4)CC3)n2)cc1OC,"inconclusive: 3.98 µM [inhibitor, partial curve]",
Cc1cc(OCC(O)CN2CCN(c3ccccn3)CC2)cc(C)c1Cl (configuration not stated),,inactive: -18.8%
O=c1[nH]c(C2CCN(S(=O)(=O)c3ccccc3)CC2)nc2c1nnn2Cc1c(F)cccc1Cl,,inactive: -6.39% [at 46.1 µM]
Fc1ccccc1Nc1c2c(nc3ccccc13)CCC2,"inconclusive: 17.8 µM [inhibitor, single point]",
CCN1CCN(c2c(/C=C3\SC(=S)N(Cc4ccco4)C3=O)c(C)c(C#N)c(=O)n2C)CC1,active: 12.6 µM,
COc1ccc(OC)c2c(C)cc(N3CCN(C(=O)c4ccc(F)cc4)CC3)nc12,"inconclusive: 1.26 µM [inhibitor, single point]",
CCN(Cc1ccncc1)S(=O)(=O)c1ccc(C(C)=O)cc1,"inconclusive: 8.2 µM [inhibitor, partial curve]",
CC1CCN(C(=O)Cn2c(=O)n(Cc3ccc4c(c3)OCO4)c(=O)c3ccccc32)CC1,"inconclusive: 10 µM [inhibitor, single point]",
CC(=O)c1cccc(NC(=O)c2cccc(S(=O)(=O)N(C)C)c2)c1,,inactive: 28.2%
Cc1ccccc1NC(=O)NCCc1c[nH]c2ccccc12,"inconclusive: 2.82 µM [inhibitor, full curve]",
COc1ccc(CC2(CO)CCN(Cc3cccn3-c3ccccn3)CC2)cc1,"inconclusive: 35.5 µM [inhibitor, single point]",
CCOc1cc(/C=N/NC(=O)c2nn(C)cc2Br)ccc1OCc1ccccc1Cl,"inconclusive: 15.8 µM [inhibitor, single point]",
COc1ccc(C2=C(CC(=O)O)C(=O)CC2)cc1,"inconclusive: 11.2 µM [activator, single point]",
COc1ccccc1C(=O)Nc1c(C(=O)Nc2cc(Cl)ccc2C)sc2nc(C)cc(C)c12,"inconclusive: 0.501 µM [inhibitor, full curve, poor fit]",
COc1ccccc1OCCNC(=O)c1ccc(C(C)(C)C)cc1,"inconclusive: 0.562 µM [activator, single point]",
c1ccc2oc(SCc3cn4ccccc4n3)nc2c1,"inconclusive: 1.16 µM [activator, full curve, poor fit]",
COc1cccc(CN2C(=O)c3ccccc3Sc3ccc(C(=O)NCc4ccccc4)cc32)c1,"inconclusive: 7.08 µM [inhibitor, full curve]",
Cc1ccc(S(=O)(=O)N(Cc2cccc(F)c2)C(=O)N2CCN(C)CC2)cc1,,inactive: 0.75%
COc1ccc(F)cc1S(=O)(=O)Nc1cc2c3c(c1)CC(=O)N3CCC2,,inactive: 7.38%
O=C(CSc1ccc(Cl)cc1)Nc1ccc(N2CCN(C(=O)c3ccco3)CC2)cc1,"inconclusive: 17.8 µM [inhibitor, single point]",
O=C1C(N2CCOCC2)=C(n2nnc3ccccc32)C(=O)c2ccccc21,active: 7.94 µM,
